Laboratory results: US20230339834A1, “CHLORINATED FLUOROAROMATICS AND METHODS OF USING SAME” (3M INNOVATIVE PROPERTIES COMPANY, priority 2019, published 2023)

Experiment: Atmospheric lifetime from relative rate studies with hydroxyl radicals, chloromethane reference
Conditions: reaction with hydroxyl radicals relative to CH3Cl

SMILES	Atm Lifetime
FC(F)(F)C(=C(Oc1ccccc1)C(F)(F)C(F)(F)F)C(F)(F)F [CE2]	0.27 yrs
F/C(=C(/C(F)(F)F)C(F)(Oc1ccc(Cl)cc1)C(F)(F)C(F)(F)F)C(F)(C(F)(F)F)C(F)(F)F (stereo not drawn) [Ex. 1, (E)-1-chloro-4-((1,1,1,2,2,3,5,6,7,7,7-undecafluoro-4,6-bis(trifluoromethyl)hept-4-en-3-yl)oxy)benzene]	<0.3 yrs
F/C(=C(/C(F)(F)F)C(F)(Oc1ccccc1)C(F)(F)C(F)(F)F)C(F)(C(F)(F)F)C(F)(F)F (stereo not drawn) [CE1, (E)-((1,1,1,2,2,3,5,6,7,7,7-Undecafluoro-4,6-bis(trifluoromethyl)hept-4-en-3-yl)oxy)benzene]	0.16 yrs
